Results published in PubChem BioAssay AID504834 (National Center for Advancing Translational Sciences (NCATS), 2011).
Screen size: about 320,000 compounds; about 22,000 (6.9%) were called active. Inconclusive results, whose numbers are uncertain, are shown with a selection of clear calls. The call rests on the fitted dose curve; in most records, active means well fitted inhibition curve with a large enough effect; inconclusive means small, poorly fitted or top-dose-only effect, or another doubt; inactive means no such curve, though single readings can be large or run the other way. Where the call is inconclusive, the potency comes from a doubtful curve fit.

assay: Primary qHTS for delayed death inhibitors of the malarial parasite plastid, 96 hour incubation; settings: P. falciparum luciferase reporter growth; series mostly up to 28.7 µM
Procedure, shortened: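 Cell-based qHTS: luciferase-tagged P. falciparum in erythrocytes (2% hematocrit, 0.05% parasitemia final) incubated with compounds for 96 hours, 37 C, 5% CO2; luciferase detection reagent then added and luminescence measured.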
Potency means the concentration at half of the fitted maximal effect.

| Structure (SMILES) | Potency |
| --- | --- |
| C=CCN(CC=C)S(=O)(=O)c1ccc(C(=O)Nc2nc3c(s2)CCc2ccccc2-3)cc1 | inconclusive: 14.7 µM [inhibitor, single point] |
| Cc1onc(-c2c(F)cccc2Cl)c1C(=O)Nc1cccc2nsnc12 | inconclusive: 18.5 µM [inhibitor, partial curve, poor fit] |
| O=C(CN1CCCN(Cc2ccc(F)cc2)S1(=O)=O)NC1CCCC1 | inconclusive: 13.1 µM [inhibitor, single point] |
| Cc1sc2ncnc(-n3cnc4ccccc43)c2c1C | inconclusive: 1.04 µM [inhibitor, full curve, poor fit] |
| Cc1ccc(S(=O)(=O)Nc2cc(NC(=O)CN3CCOCC3)ccc2Cl)cc1 | inactive |
| Cc1ccc(NC(=O)C(NCc2ccccn2)c2ccccc2)cc1 (stereo not given) | inconclusive: 13.1 µM [inhibitor, single point] |
| O=c1c2c3c(sc2ncn1Cc1ccc(F)cc1)CCC3 | inconclusive: 4.65 µM [inhibitor, partial curve, poor fit] |
| CCCCCCC(C)NC(=S)Nc1cc(S(=O)(=O)N(C)C)ccc1C (stereo not given) | inactive |
| O=C(c1ccc(COc2c(F)c(F)cc(F)c2F)o1)N1CCN(c2ccccc2)CC1 | inactive |
| O=C(Oc1cccccc1=O)c1ccccc1 | active: 14.7 µM |
| Cc1cc(C)c(C(=O)Nc2ccc(Br)c(C(F)(F)F)c2)c(C)c1 | active: 9.28 µM |
| CCCCNc1nc(N)nc(-c2cc(Cl)ccc2O)n1 | inactive |
| CCOc1ccccc1N(CC(=O)Nc1ccc(S(=O)(=O)N2CCOCC2)cc1)S(=O)(=O)c1ccccc1 | inconclusive: 1.17 µM [inhibitor, partial curve, poor fit] |
| CCOC(=O)c1cc(S(=O)(=O)N2CCN(C(=O)OCC)CC2)cn1C | inconclusive: 0.0828 µM [inhibitor, full curve, poor fit] |
| Cc1ccc(NC(=O)Cn2cc(S(=O)(=O)c3ccc(C)cc3)c(=O)c3cc(F)ccc32)cc1 | inconclusive: 9.28 µM [inhibitor, single point] |
| O=c1cc(COc2ncnc3ccccc23)nc2sccn12 | inconclusive: 18.5 µM [inhibitor, single point] |
| CC(NC(=O)CSCc1ccc(Br)cc1)c1ccccc1 (stereo not given) | inconclusive: 6.57 µM [inhibitor, partial curve, poor fit] |
| CCOc1cccc(-c2c(C(=O)N/N=C/c3c(F)cccc3Cl)nnn2-c2nonc2N)c1 | inconclusive: 18.5 µM [inhibitor, single point] |
| CC(=O)Nc1ccc(S(=O)(=O)N2CCN(C(=O)N3CCCC3)CC2)cc1 | inactive |
| N#Cc1nc(COc2ccccc2)oc1NCCCn1ccnc1 | inconclusive: 0.828 µM [inhibitor, full curve, poor fit] |
| Cc1nn(-c2ccccc2)c(C)c1C(=O)OCC(=O)N(C)c1ccccc1 | inconclusive: 18.5 µM [inhibitor, single point] |
| CCOC(=O)C1=C(C)NC2=C(C(=O)OC2)C1c1ccccc1 (stereo not given) | inconclusive: 1.31 µM [inhibitor, full curve, poor fit] |

Two records drawn at random from those above:

| Structure (SMILES) | Potency |
| --- | --- |
| Cc1ccc(NC(=O)Cn2cc(S(=O)(=O)c3ccc(C)cc3)c(=O)c3cc(F)ccc32)cc1 | inconclusive: 9.28 µM [inhibitor, single point] |
| CCCCCCC(C)NC(=S)Nc1cc(S(=O)(=O)N(C)C)ccc1C (stereo not given) | inactive |

Continued.

| Structure (SMILES) | Potency |
| --- | --- |
| CN(C)CCN=Cc1c(O)n(Cc2ccco2)c(=O)[nH]c1=O | inactive |
| N#Cc1c(-c2ccccc2)cc(-c2ccc3c(c2)OCO3)[nH]c1=O | inactive |
| CC1CCN(CC(O)COc2cccc(F)c2)CC1 (stereo not given) | inconclusive: 5.22 µM [inhibitor, partial curve, poor fit] |
| CC1(C)CC(=O)C(C=NCCN2CCN(CCc3ccccc3)CC2)=C(O)C1 | inconclusive: 18.5 µM [inhibitor, single point] |
| COc1cc(/C=N/NC(=O)c2cccc3ccccc23)cc(OC)c1OC | inconclusive: 13.1 µM [inhibitor, single point] |
| CCOc1ccc2nc(N/C(N)=N/C(=S)Nc3cccc(OC)c3)nc(C)c2c1 | inconclusive: 1.65 µM [inhibitor, full curve, poor fit] |
| CCN(CC)C(=O)c1c(NC(=O)c2ccccc2)sc(C)c1C | inactive |
| COc1ccc(C(=O)c2sc3nc(-c4ccccc4)ccc3c2N)cc1OC | inconclusive: 2.62 µM [inhibitor, single point] |
| O=C(Cn1nc(CNc2ccc(Cl)cc2)[n+]2c1CCCCC2)c1ccccc1 | inconclusive: 0.294 µM [inhibitor, full curve, poor fit] |
| Brc1ccc(-c2cn3c(n2)CCc2ccc4cccnc4c2-3)cc1 | inconclusive: 18.5 µM [inhibitor, single point] |
| CN(C)/C=N/c1nc(Sc2ccc(C(F)(F)F)cc2[N+](=O)[O-])n[nH]1 | inactive |
| O=C(Oc1oc(-c2ccco2)nc1C=Nc1ccccc1)c1ccco1 | inactive |
| COc1ccc(/C=C/C(=O)NCCCc2ccccc2)cc1 | inactive |
| CCCOC(=O)c1ccc(NC(=O)c2c(Cl)ccc(Cl)c2OC)cc1 | inactive |
| CCCNC(=O)N1[C@H]2CC[C@@H]1C(C(=O)OC)=C(c1ccc(F)cc1F)C2 | inactive |
| CCO[C@@H]1OC(C(=O)NCc2ccccc2)=C[C@H](c2ccc(Br)cc2)[C@H]1CCCO | inconclusive: 5.86 µM [inhibitor, partial curve] |
| O=c1[nH]n2c(=O)c3c([nH]c2c1N=Nc1cccc(C(F)(F)F)c1)CCCC3 | inconclusive: 14.7 µM [inhibitor, partial curve, poor fit] |
| O=C(CCCCCN1C(=O)c2ccccc2C1=O)Nc1ccc(C(=O)O)cc1 | inactive |
| O=C(O)c1ccccc1CSc1ccccn1 | inconclusive: 18.5 µM [inhibitor, single point] |
| Cc1ccc(S(=O)(=O)Nc2ccc3cn[nH]c3c2)cc1 | inconclusive: 18.5 µM [inhibitor, single point] |
| NC(=O)c1ccccc1NC(=O)C1CCCO1 (stereo not given) | active: 10.4 µM |
| Cc1cc(C)cc(NC(=S)N2CCC(NC(=O)c3ccccc3C)CC2)c1 | inactive |
